Laboratory results: PubChem BioAssay AID1259327 (Drosophila RNAi Screening Center, 2017)
The deposit covers about 3,100 reagents; this is an unselected part. 378 of all reagents (12%) were called active. 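Hits include both directions; z-score sign shows ATP rise or fall; raw luminescence values are not plate-normalised.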 Unmarked entries are inactive. A plus sign joins genes that one reagent is predicted to hit. Not stated in the record: the amount of reagent.

Screen: 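Baseline ATP after transmembrane-protein gene knock-down with water vehicle only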
Cells: Drosophila S2R+ cells
Knock-down reagent: long dsRNA against Drosophila genes
Timing: 5 days (water added on day 4, read one day later)
Challenge: water added as vehicle, no metal, one day before read-out
Detection: 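Total ATP measured by luciferase light, scaled to plate mean, duplicates averaged, then z-scored across plates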
Reading the numbers: ATP z-score: higher = more total ATP than typical wells; ATP luminescence: higher = more total ATP
Hit rule: 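a hit is any knock-down whose absolute ATP z-score is greater than 1.5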
Calls: active = hit: ATP up or down; inactive = no clear ATP change

no.	gene	dsRNA	ATP z-score, duplicate mean	ATP luminescence, replicate 1 (RLU)	ATP luminescence, replicate 2 (RLU)
1	CG9981	DRSC20225	1.12	7.18e5	8.35e5
2	T48	DRSC16878	0.761	5.82e5	6.85e5
3	Rift	DRSC14330	-0.17	5.57e5	8.02e5
4	CG3649	DRSC04400	0.129	7.11e5	7.68e5
5	CG3649	DRSC28728	-0.814	7.52e5	7.00e5
6	Ca-alpha1D	DRSC03284	-0.158	4.66e5	4.70e5
7	Ca-alpha1D	DRSC39679	-0.00244	4.54e5	4.77e5
8	Tret1-2	DRSC07117	0.0814	6.38e5	6.16e5
9	Tret1-2	DRSC28985	-0.263	8.05e5	7.78e5
10	Tsp2A	DRSC18584	0.735	7.76e5	7.52e5
11	Tsp2A	DRSC39445	-0.572	4.33e5	3.98e5
12	CG11898	DRSC27906	0.941	7.57e5	8.56e5
13	CG11898	DRSC39534	2.1 (active)	6.26e5	5.60e5
14	Trc8	DRSC15437	-0.206	6.82e5	6.87e5
15	Trc8	DRSC28575	-0.411	8.95e5	6.62e5
16	PGRP-LF + UGP	DRSC10418	-0.272	8.89e5	8.33e5
17	CG11262	DRSC09831	-0.555	8.62e5	7.86e5
18	CG11262	DRSC39465	-0.344	4.37e5	4.24e5
19	CG4462	DRSC15583	0.193	7.36e5	7.15e5
20	CG4462	DRSC25650	0.931	1.01e6	8.63e5
21	kek2	DRSC03552	1.14	8.72e5	8.22e5
22	kek2	DRSC26189	0.332	8.89e5	8.94e5
23	CG34435	DRSC18086	-0.0959	6.10e5	7.37e5
24	CG34435	DRSC39470	-0.627	3.97e5	4.25e5
25	CG9864	DRSC07346	1.07	8.44e5	5.89e5
26	CG9864	DRSC28765	-0.752	8.34e5	6.39e5
27	Dh44-R2	DRSC06141	-0.276	5.42e5	6.47e5
28	CG9855	DRSC12344	1	8.15e5	8.62e5
29	CG11367	DRSC22434	-1.11	6.98e5	7.27e5

Part of the list above in another layout.
| gene | dsRNA | ATP z-score, duplicate mean | ATP luminescence, replicate 1 (RLU) | ATP luminescence, replicate 2 (RLU) |
| --- | --- | --- | --- | --- |
| Tret1-2 | DRSC07117 | 0.0814 | 6.38e5 | 6.16e5 |
| Tret1-2 | DRSC28985 | -0.263 | 8.05e5 | 7.78e5 |
| Tsp2A | DRSC18584 | 0.735 | 7.76e5 | 7.52e5 |
| Tsp2A | DRSC39445 | -0.572 | 4.33e5 | 3.98e5 |

Additional records:
no.	gene	dsRNA	ATP z-score, duplicate mean	ATP luminescence, replicate 1 (RLU)	ATP luminescence, replicate 2 (RLU)
30	Fitm	DRSC09772	-0.713	6.75e5	6.34e5
31	Fitm	DRSC28750	0.136	8.59e5	8.20e5
32	Tim17a2	DRSC12252	-1.36	7.31e5	7.05e5
33	Tim17a2	DRSC23837	1.73 (active)	1.02e6	1.11e6
34	rk	DRSC03602	-0.172	7.73e5	6.44e5
35	Syx5	DRSC03432	-1.6 (active)	3.29e5	4.07e5
36	CG2519	DRSC12312	0.656	8.47e5	7.54e5
37	CCKLR-17D3	DRSC20017	-0.0309	7.15e5	7.64e5
38	CCKLR-17D3	DRSC23715	0.352	7.93e5	9.96e5
39	Lrch	DRSC02996	-0.0714	4.42e5	5.08e5
40	Lrch	DRSC29145	-0.461	8.34e5	7.06e5
41	CG1698	DRSC06640	0.212	7.27e5	7.82e5
42	CG1698	DRSC24314	0.25	9.30e5	7.82e5
43	CCHa2-R	DRSC04870	-0.562	4.90e5	6.47e5
44	CCHa2-R	DRSC04871	-0.381	5.17e5	6.53e5
45	bib + lncRNA:CR13130	DRSC24888	0.0563	8.84e5	8.30e5
46	fend	DRSC17601	-0.721	5.68e5	5.41e5
47	fend	DRSC17867	0.62	6.60e5	6.91e5
